Measured values as given in PubChem BioAssay AID493014 (National Center for Advancing Translational Sciences (NCATS), 2011).
The list shows a part of the results. These are further read-outs of the screen, such as a control signal, another cell line or another target. No call is given for them. Compounds called inactive in the main read-out are mostly missing here. Potencies come from curve fits of mixed quality, noted in brackets.

Experiment: qHTS Assay to Find Inhibitors of Chronic Active B-Cell Receptor Signaling
Settings: ABC-DLBCL IkBa-CBG/CBR reporter, luminescence ratio (green luciferase fused to IkBa over red control in TMD8 lymphoma cells), 4 h
Method in brief: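 Cell line TMD8 (human ABC DLBCL), stably expressing tet-inducible CBG68-IkBa fusion and CBR; IMDM/0.5% FBS; cpd up to 46 uM; dox induction, 4 h, 37C/5% CO2; dual luminescence; green/red ratio; MG132 control.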

[1] = measured here: CBR red luminescence, cell number
[2] = measured here: IkBa-CBG green luminescence

O=C(O)CC/C(=N\NC(=O)c1ccccc1Br)c1ccccc1
AC50 [1]: 11.6 µM [falling, partial curve]

Nc1c(C(=O)c2ccc(Cl)cc2)sc2nc3c(cc12)CCC3
AC50 [1]: 1.3 µM [falling, full curve]

N#CC(C#N)=C1C(=O)N(CCN2CCOCC2)c2ccccc21
AC50 [1]: 25.1 µM [falling, single point]

COc1ccc(N2CC(C)Cn3c2nc2c3c(=O)n(Cc3ccccc3F)c(=O)n2C)c(OC)c1 (stereo unspecified)
AC50 [1]: 0.411 µM [falling, partial curve, poor fit]

Cc1c(NC(=O)c2cccc(NC(=O)Cc3ccc(Cl)cc3)c2)c(=O)n(-c2ccccc2)n1C
AC50 [1]: 14.6 µM [rising, single point]
AC50 [2]: 23.1 µM [falling, partial curve, poor fit]

COc1ccc(C(=O)Nc2cc([N+](=O)[O-])ccc2N2CCN(C)CC2)cc1
AC50 [1]: 3.16 µM [rising, full curve, poor fit]

CC(=O)Nc1ccc(Oc2ccccc2)cc1
AC50 [1]: 0.447 µM [rising, partial curve, poor fit]

Cc1ccc(C(=O)N/N=C(/CC(=O)c2cccs2)C(F)(F)F)cc1
AC50 [1]: 32.6 µM [falling, single point]

Cc1cccc(C(=O)NCC(=O)OCC(=O)N(C)CC(=O)Nc2ccccc2Cl)c1
AC50 [1]: 0.164 µM [rising, full curve, poor fit]

O=C(Nc1cccc2ccccc12)N1CCN(c2ncccn2)CC1
AC50 [1]: 11.2 µM [falling, partial curve]

COC(=O)C1CCN(C(=O)COC(=O)/C=C/c2ccc(O)c(OC)c2)CC1
AC50 [1]: 29.1 µM [falling, single point]

CC/C(C)=N/N1C(=O)c2ccccc2NC1(C)CC (stereo unspecified)
AC50 [1]: 0.794 µM [falling, full curve]

COc1ccc(Cl)cc1NC(=O)COC(=O)c1ccc(Br)o1
AC50 [1]: 13 µM [rising, partial curve, poor fit]

CCOC(OCC)c1cc2ccccc2cn1
AC50 [1]: 1.84 µM [falling, partial curve, poor fit]

CCOC(=O)c1ccc(NC(=S)NCCc2ccccc2)cc1
AC50 [1]: 0.282 µM [falling, full curve]

Cc1csc(NC(=O)CSc2nnc(Cc3cccn3C)n2CCc2ccccc2)n1
AC50 [1]: 4.11 µM [falling, partial curve, poor fit]

CC(=O)Nc1cccc(C(=O)OCC(=O)NC2CCCCCCC2)c1
AC50 [1]: 1.46 µM [rising, partial curve, poor fit]

Cc1ccccc1OCC(=O)NNC(=O)c1ccoc1C
AC50 [1]: 7.31 µM [rising, partial curve, poor fit]

COc1ccc2[nH]c(C)c(CCNC(=S)Nc3cc(C)cc(C)c3)c2c1
AC50 [1]: 20.6 µM [rising, partial curve, poor fit]

CCCNC(=O)c1ccc(-c2nc3ccccc3s2)s1
AC50 [1]: 0.092 µM [rising, partial curve, poor fit]

C=C(C)C(=O)Nc1cccc(C2=NOC3(C2)C[C@H](C(N)=O)N(C(=O)C(c2ccccc2)c2ccccc2)C3)c1 (stereo partly specified)
AC50 [1]: 1.26 µM [rising, partial curve, poor fit]

COc1ccc(CCNC(=O)c2ccc3c(c2)N(Cc2ccccc2Cl)C(=O)c2ccccc2S3)cc1OC
AC50 [1]: 14.1 µM [rising, single point]

O=C(NCc1nnnn1-c1ccc(F)c(F)c1)C(=O)c1c[nH]c2ccccc12
AC50 [1]: 13 µM [falling, partial curve, poor fit]

O=C(CN1CCN(c2ccccc2)CC1)NC(=O)NCc1ccccc1
AC50 [1]: 6.51 µM [falling, single point]
AC50 [2]: 7.31 µM [rising, partial curve, poor fit]

Cc1cc(C)n2cc(CSCc3ccco3)nc2n1
AC50 [1]: 7.31 µM [rising, partial curve, poor fit]

COc1ccc(C(=O)COC(=O)Cn2[nH]c(=O)c3ccccc3c2=O)c(OC)c1
AC50 [1]: 1.64 µM [rising, full curve, poor fit]

C#CCOCCOCCOCCNc1nc(N2CCN(C(=O)[C@H]([C@@H](C)CC)n3cc([C@@H](N)CO)nn3)CC2)nc(N2CCN(C(=O)[C@H](CCCCN)n3cc([C@@H](N)CC(C)C)nn3)CC2)n1
AC50 [1]: 1.78 µM [rising, full curve, poor fit]

O=S(=O)(CCc1nc2ccccc2[nH]1)c1ccc(Cl)cc1
AC50 [1]: 3.66 µM [rising, full curve]

CN(C)CCCNC(=O)c1cc2sc3ccccc3c2s1
AC50 [1]: 35.5 µM [falling, single point]

Cc1ccn(C(=O)c2ccc(NC(=O)C3CC3)cc2)n1
AC50 [1]: 2.24 µM [rising, partial curve, poor fit]

C[C@]12c3[nH]c4ccc(Cl)cc4c3CCN1C(=O)[C@@H](CC(=O)NCCN1CCOCC1)C[C@@H]2C(=O)N1CCOCC1
AC50 [1]: 16.4 µM [rising, partial curve, poor fit]

COc1ccc(C)cc1NC(=O)c1cc2ccccc2o1
AC50 [1]: 3.16 µM [rising, partial curve, poor fit]

O=C(c1cc(=O)[nH]c2ccccc12)N1CCN(c2cccc(C(F)(F)F)c2)CC1
AC50 [1]: 3.98 µM [rising, single point]

COc1ccc(NC(=O)CSc2nnc(-c3ccccc3C)n2N)cc1
AC50 [1]: 5.62 µM [rising, single point]

Cc1ccn2c(=O)nc(SCC(=O)NCc3ccccc3Cl)nc2c1
AC50 [1]: 25.9 µM [falling, single point]

O=C(N[C@@H](Cc1ccccc1)C(=O)OCC(=O)N1CCOCC1)c1cccs1
AC50 [1]: 20 µM [rising, single point]

Cc1cccc2cc(CN(Cc3ccco3)C(c3nnnn3CCc3ccccc3)C(C)C)c(=O)[nH]c12 (stereo unspecified)
AC50 [1]: 6.31 µM [falling, partial curve]

CCC(=O)Nc1nc2ccc(S(C)(=O)=O)cc2s1
AC50 [1]: 23.1 µM [rising, single point]

Cn1cnnc1SCC(=O)NC1CCCN(Cc2ccc(Cl)cc2)C1 (stereo unspecified)
AC50 [1]: 14.1 µM [rising, single point]
